Experimental data: PubChem BioAssay AID652272 (Drosophila RNAi Screening Center, 2013)
The screen tested about 21,000 reagents; shown is a random part of those with a known target gene and a result. Of all reagents, 503 (2.4%) were called active. 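Raw plate light values, not normalised; calls rest on replicate z-scores that were not deposited; hits include reporter decreases as well as increases.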 A number with no mark means an inactive call. Reagents against one gene are numbered here. A plus sign joins genes that one reagent is predicted to hit. Not given: the amount of reagent, the time to read-out.

Test: 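Genes whose knock-down decreases or increases Hedgehog reporter output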 (primary screen)
Cells: Drosophila clone 8 (Cl8) cells
Reagents: long dsRNA against Drosophila genes
Measured: 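Plate reader light from a firefly reporter under a ptc promoter fragment that responds to Hedgehog, with Renilla light as transfection reference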
Direction: firefly Hh reporter signal: higher = more ptc reporter light; Renilla reference signal: higher = more Renilla control light
Hit rule: 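Called a hit if the two-replicate mean z-score lies below -2 or above +3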
Calls: active = hit: reporter lowered or raised; inactive = not a hit

gene	reagent no.	firefly Hh reporter signal, replicate 1	firefly Hh reporter signal, replicate 2	firefly Hh reporter signal, replicate 3	Renilla reference signal, replicate 1	Renilla reference signal, replicate 2
Faa	1	1.04e5	67789		4550	2953
CG7564	1	80716			6017	3272
CG7631	1	1.02e5	64105		2882	4949
CG32809	1	2.12e5	5.82e5	1.04e5	4981	27841
CG32809	2	1.13e5	93447		2752	3378
CR33317	1	1.37e5	60893		3504	5901
CG8187	1	90900	56000		4167	2469
CkIIalpha-i3	1	1.51e5	58714		6534	3168
CG13193	1	1.11e5	96752		3177	6183
nAChRalpha7	1	1.16e5	2.43e5		4652	10741
nAChRalpha7	2	1.09e5	1.70e5		4077	7413
CG5641	1	1.21e5	81419		5063	3424
CG10466	1	83801	62999		2082	6771
stv	1	93012	88688		3777	3738
stv	2	47446	57389	57474	4184	4000
CG8060	1	1.31e5	82583		6342	3818
Taf12	1	89592	88484		3138	3608
Hinfp	1	65536	1.32e5		2648	5369
CG13667	1	94605	70057		5451	2896
CG43393	1	1.12e5	2.06e5		2820	8103
Scp2	1	28675	2.33e5		4496	5140
Scp2	2	89628	1.05e5		2776	2876
CG14355	1	1.22e5	1.23e5		5680	5042
Lcp2	1	91809	64882		2145	4917
CG42322	1	1.27e5	69559		5260	2896
CG42322	2	6.06e5	1.33e5		36353	9476
CG42322	3	4.33e5	33991		24717	2660
Top3alpha	1	83649	43642		2112	3707
spz	1	94920	78979		2300	2513
CG42634 + CG42635	1	1.22e5	53718		2715	5175
Eig71Ef	1	1.92e5			7506	5910
Fatp2	1	1.26e5	2.13e5		3562	10548
Fatp2	2	94358	50560		1568	4772
Fatp2	3	1.05e5	63949		2178	5776
AP-2alpha	1	1.26e5	77188		2922	1655
fru	1	3.64e5	62423		20171	1997
fru	2	2.32e5	1.24e6	2.13e5	928	54144
fru	3	1.04e6	4.94e5	1.91e5	46940	4752
CG9240	1	76205	1.28e5		2221	5477
Tob	1	72136	69059		2187	1576
Act88F	1	62374	49280		1964	1319
Mtr4	1	58039 (active)	31525		3770	2240
hydra	1	84976	1.92e5		2630	7601
Cyp9b2	1	69573	43911		1840	4305
Ir100a	1	1.22e5	3.44e5		4442	11341
CG6310	1	38086	47517	78728	4573	5568
MBD-R2	1	62328 (active)	1.13e5		1104	1424
CG12056	1	89936	71760		1881	1731
Spn77Ba	1	74632	1.01e5		3221	3868
cbc	1	96626	75408		3245	3766
sut1	1	1.08e5	71386		4272	2948
CG11099	1	1.21e5	67260		3367	5904
Tes	1	92628	77136		2489	5264
Jhedup	1	82487	48748		2360	3029
faf	1	81072	2.22e5		3084	9128
PIG-H	1	1.06e5	1.60e5		3680	15272
CG11619	1	88393	1.62e5		3162	4740

Entries above marked active:
gene	reagent no.	firefly Hh reporter signal, replicate 1	firefly Hh reporter signal, replicate 2	firefly Hh reporter signal, replicate 3	Renilla reference signal, replicate 1	Renilla reference signal, replicate 2
Mtr4	1	58039 (active)	31525		3770	2240
MBD-R2	1	62328 (active)	1.13e5		1104	1424
